# According to publication PMC8913617:
# Amino acid sequences for entries named in this document (tags omitted). A change or cut given only in a name is not applied to a line headed by its entry.
# UniProt Q80WQ6: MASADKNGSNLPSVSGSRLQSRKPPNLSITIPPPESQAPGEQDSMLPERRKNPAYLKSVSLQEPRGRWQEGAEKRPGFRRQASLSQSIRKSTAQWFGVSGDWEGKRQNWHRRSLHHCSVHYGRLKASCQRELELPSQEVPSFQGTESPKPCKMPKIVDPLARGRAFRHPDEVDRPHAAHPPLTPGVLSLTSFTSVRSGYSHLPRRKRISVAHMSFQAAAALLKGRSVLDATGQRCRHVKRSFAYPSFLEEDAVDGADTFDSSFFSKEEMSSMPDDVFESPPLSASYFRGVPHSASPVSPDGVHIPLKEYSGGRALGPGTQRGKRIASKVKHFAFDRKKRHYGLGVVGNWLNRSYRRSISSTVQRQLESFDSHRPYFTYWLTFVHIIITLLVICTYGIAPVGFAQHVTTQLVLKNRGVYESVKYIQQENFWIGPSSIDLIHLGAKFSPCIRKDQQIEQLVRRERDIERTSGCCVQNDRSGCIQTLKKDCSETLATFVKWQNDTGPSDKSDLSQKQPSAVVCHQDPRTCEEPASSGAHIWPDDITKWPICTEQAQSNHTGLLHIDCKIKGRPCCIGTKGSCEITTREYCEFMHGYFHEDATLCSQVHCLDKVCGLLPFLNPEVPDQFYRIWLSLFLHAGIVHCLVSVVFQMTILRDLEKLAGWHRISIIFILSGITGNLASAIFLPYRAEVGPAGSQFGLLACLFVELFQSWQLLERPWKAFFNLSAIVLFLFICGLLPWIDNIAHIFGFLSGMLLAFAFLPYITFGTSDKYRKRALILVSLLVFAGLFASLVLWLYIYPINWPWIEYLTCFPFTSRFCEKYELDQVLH
# UniProt P11881: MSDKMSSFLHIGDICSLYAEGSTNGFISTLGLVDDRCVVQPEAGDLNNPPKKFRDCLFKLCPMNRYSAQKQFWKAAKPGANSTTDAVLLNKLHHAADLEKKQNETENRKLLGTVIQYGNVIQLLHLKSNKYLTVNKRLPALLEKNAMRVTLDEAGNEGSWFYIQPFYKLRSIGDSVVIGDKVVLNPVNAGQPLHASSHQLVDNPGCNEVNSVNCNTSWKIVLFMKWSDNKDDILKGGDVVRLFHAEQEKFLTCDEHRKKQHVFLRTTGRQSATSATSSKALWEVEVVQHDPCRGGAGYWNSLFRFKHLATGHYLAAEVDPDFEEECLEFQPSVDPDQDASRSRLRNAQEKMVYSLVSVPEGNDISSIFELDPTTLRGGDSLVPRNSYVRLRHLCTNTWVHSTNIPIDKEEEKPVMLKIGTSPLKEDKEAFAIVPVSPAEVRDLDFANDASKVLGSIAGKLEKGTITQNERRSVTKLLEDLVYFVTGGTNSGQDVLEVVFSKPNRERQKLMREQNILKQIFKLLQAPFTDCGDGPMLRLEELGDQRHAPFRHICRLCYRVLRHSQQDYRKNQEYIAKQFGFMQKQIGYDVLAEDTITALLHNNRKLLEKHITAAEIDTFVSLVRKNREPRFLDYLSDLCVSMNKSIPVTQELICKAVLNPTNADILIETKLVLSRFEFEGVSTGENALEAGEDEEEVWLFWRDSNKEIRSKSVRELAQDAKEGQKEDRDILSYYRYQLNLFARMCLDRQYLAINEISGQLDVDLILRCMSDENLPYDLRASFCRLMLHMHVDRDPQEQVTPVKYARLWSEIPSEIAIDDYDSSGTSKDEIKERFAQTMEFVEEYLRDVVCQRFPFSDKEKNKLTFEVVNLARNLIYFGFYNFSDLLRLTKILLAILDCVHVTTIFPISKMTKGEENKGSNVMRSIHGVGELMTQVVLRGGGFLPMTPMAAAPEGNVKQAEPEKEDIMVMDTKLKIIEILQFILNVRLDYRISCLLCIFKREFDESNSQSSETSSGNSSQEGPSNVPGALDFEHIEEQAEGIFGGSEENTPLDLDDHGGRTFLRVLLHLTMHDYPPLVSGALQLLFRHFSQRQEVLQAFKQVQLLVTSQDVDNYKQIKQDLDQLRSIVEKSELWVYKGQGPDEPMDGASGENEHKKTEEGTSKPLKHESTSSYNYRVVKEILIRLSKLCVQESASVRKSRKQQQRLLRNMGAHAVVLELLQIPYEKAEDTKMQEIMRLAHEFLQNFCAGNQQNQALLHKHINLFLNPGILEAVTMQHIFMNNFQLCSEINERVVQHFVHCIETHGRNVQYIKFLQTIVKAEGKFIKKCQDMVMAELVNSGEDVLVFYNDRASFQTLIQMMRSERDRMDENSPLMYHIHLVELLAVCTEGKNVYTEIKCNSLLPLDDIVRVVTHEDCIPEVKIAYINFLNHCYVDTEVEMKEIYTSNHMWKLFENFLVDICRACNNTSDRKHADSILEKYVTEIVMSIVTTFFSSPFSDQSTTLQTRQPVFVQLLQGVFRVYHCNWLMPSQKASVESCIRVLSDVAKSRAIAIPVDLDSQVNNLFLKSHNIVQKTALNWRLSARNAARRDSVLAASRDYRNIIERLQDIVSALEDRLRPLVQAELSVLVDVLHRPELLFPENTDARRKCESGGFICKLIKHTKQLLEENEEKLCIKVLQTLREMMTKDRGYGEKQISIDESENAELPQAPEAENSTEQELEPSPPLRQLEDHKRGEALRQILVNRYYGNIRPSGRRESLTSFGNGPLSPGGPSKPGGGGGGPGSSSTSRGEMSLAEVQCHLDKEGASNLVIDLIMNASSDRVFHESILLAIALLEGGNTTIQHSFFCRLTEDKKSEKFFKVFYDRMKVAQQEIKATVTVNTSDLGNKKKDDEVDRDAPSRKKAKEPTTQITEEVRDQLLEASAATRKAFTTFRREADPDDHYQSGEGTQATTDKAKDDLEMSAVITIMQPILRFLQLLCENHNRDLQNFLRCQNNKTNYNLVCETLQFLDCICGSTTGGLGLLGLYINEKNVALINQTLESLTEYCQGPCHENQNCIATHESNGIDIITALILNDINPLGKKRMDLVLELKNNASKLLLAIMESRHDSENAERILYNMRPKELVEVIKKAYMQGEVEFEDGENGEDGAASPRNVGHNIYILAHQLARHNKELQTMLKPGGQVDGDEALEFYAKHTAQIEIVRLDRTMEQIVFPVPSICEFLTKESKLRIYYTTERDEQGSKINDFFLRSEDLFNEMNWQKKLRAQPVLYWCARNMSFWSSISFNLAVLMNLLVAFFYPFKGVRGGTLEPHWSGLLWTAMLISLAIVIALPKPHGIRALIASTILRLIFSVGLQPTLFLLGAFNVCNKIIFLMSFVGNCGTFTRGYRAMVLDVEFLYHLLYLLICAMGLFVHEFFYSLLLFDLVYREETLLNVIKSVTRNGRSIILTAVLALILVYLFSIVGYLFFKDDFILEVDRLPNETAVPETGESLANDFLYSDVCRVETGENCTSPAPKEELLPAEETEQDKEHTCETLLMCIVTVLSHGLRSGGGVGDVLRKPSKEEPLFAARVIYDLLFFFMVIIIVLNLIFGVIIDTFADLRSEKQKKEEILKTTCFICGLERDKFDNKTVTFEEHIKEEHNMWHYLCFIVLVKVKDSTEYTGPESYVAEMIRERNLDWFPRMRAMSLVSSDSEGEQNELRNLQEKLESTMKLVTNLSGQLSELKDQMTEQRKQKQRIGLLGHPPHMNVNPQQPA
# No constants are given. Whether binding was seen depends on the method and setting. Binding seen in cells or lysates may run through a third protein. A result given as binding can be weak or reduced; the word gives no strength.
# Biological target: iRhom2-ΔIRHD-HA (mouse (from the plasmid name pM6P.Blast-miR2)) (UniProt Q80WQ6)
# Assay: co-IP; iRhom1/2 DKO MEFs stably expressing HA-tagged iRhom2 forms; endogenous partners; lysis in 1% Triton X-100, 200 mM NaCl, 50 mM Tris-HCl pH 7.4; anti-HA magnetic beads, 4 °C overnight; washes with 500 mM NaCl; immunoblot; in Fig. 6b after 18 h with control or BIRD-2 peptides (10 or 20 µM)
substance,measurement,value
endogenous IP3R1 of MEFs (from UniProt P11881 1-2749) (receptor),binding,binds
